Experimental data: PubChem BioAssay AID743454 (Peter MacCallum Cancer Centre, 2014)
In all, the deposit lists about 18,000 reagents; below is an unselected part. 450 of them (2.5%) were called active. 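Single biological run; no consistent viability z cut-off exists, so the class columns, not z-scores, define the calls.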 The numbers tell different reagents against one gene apart. No sequences are given here.

Purpose: 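Knock-downs lowering viability or raising caspase 3/7 activity in vorinostat-treated resistant cells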 (primary screen)
System: human HCT116-VR colon cancer cells, selected for vorinostat resistance
Reagent: siRNA pool against human genes, 40 nM siRNA pool
Time to read-out: vorinostat for 24 h, read-out about 72 h after transfection
Conditions: vorinostat at 2.5 µM final
Measured: 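Two measures, CellTiter-Fluor viability and luminescent caspase 3/7 activity, each as fold change against same-plate mock wells, mean of duplicates, then screen-wide robust z-score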
Direction: viability robust z-score: higher = more viable cells than screen typical; caspase robust z-score: higher = more caspase 3/7 activity than screen typical
Hit rule: 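a knock-down is a hit when classed RV1 or RV2 for lowered viability, or CA1 or CA2 for caspase activation; those lethal without drug were dropped; hits were retested singly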

target gene | pool no. | viability hit class | caspase hit class | viability robust z-score | caspase robust z-score | activity call
TPGS1 | 1 | no change | no change | -1.71 | 1.27 | inactive
HDC | 1 | no change | no change | -0.76 | 0.68 | inactive
USP47 | 1 | no change | no change | 0.18 | 0.06 | inactive
AQP10 | 1 | no change | no change | 0.16 | 1.02 | inactive
RRAGD | 1 | no change | no change | -0.38 | 4.47 | inactive
TRMT10A | 1 | no change | no change | -1.02 | 2.64 | inactive
EFHB | 1 | no change | no change | 0.54 | -0.78 | inactive
GAP43 | 1 | no change | no change | 0.6 | -0.74 | inactive
CDC14A | 1 | no change | no change | 0.5 | 0.09 | inactive
OR1K1 | 1 | no change | no change | 0.99 | 0.2 | inactive
LINC03122 | 1 | no change | no change | -1.16 | -0.22 | inactive
SFTPC | 1 | no change | no change | 0.34 | -1.12 | inactive
MRPL58 | 1 | no change | no change | -0.4 | 1.46 | inactive
GPR158 | 1 | no change | no change | 0.5 | 0.28 | inactive
CDC42EP5 | 1 | no change | no change | -0.66 | -0.02 | inactive
SLC22A11 | 1 | no change | no change | -0.55 | 1.57 | inactive
ADGRG4 | 1 | no change | no change | 1.66 | -0.36 | inactive
HYAL3 | 1 | no change | no change | 0.82 | -0.18 | inactive
WDR81 | 1 | no change | no change | 0.9 | -0.6 | inactive
C3P1 | 1 | no change | no change | -0.1 | 0.2 | inactive
TUBAL3 | 1 | no change | no change | 0.58 | -0.96 | inactive
UBE2E1 | 1 | no change | no change | -0.29 | -0.71 | inactive
TMEM161B | 1 | no change | no change | -0.45 | -1.11 | inactive
HMGN5 | 1 | no change | no change | 0.24 | 0.16 | inactive
BCKDHA | 1 | no change | no change | -1.01 | 2.42 | inactive
FDX1 | 1 | no change | no change | -0.17 | -0.44 | inactive
NSMAF | 1 | no change | no change | 0.78 | 0.55 | inactive
UCHL1 | 1 | no change | no change | 1.31 | 2.24 | inactive
EXOSC1 | 1 | no change | no change | -2.38 | -0.86 | inactive
CYP51A1 | 1 | no change | no change | -1.01 | 2.69 | inactive
MIEF2 | 1 | no change | no change | 0.17 | 0.42 | inactive
TRPM5 | 1 | no change | no change | -0.38 | -0.32 | inactive
TGIF1 | 1 | no change | no change | 0.57 | -0.68 | inactive
SPAG4 | 1 | no change | no change | 0.75 | -0.43 | inactive
TMEM243 | 1 | no change | no change | -0.1 | -0.93 | inactive
GFPT1 | 1 | no change | no change | 0.01 | -0.34 | inactive
P2RY1 | 1 | no change | no change | -0.24 | -0.68 | inactive
EPHA7 | 1 | no change | no change | -0.72 | -0.09 | inactive
NAA40 | 1 | no change | no change | -2.38 | -0.39 | inactive
ERP27 | 1 | no change | no change | -0.5 | -1.12 | inactive
MRPL37 | 1 | no change | no change | 0.03 | -0.24 | inactive
EYA2 | 1 | no change | no change | 0.46 | 2.21 | inactive
ASGR2 | 1 | no change | no change | -1 | -1.12 | inactive
RIPOR2 | 1 | no change | no change | -0.44 | 1.52 | inactive
CDA | 1 | no change | no change | -1.43 | -1.09 | inactive
TEKT5 | 1 | no change | no change | 0.1 | -0.29 | inactive
HES4 | 1 | no change | no change | -2.29 | 2.5 | inactive
CABCOCO1 | 1 | no change | no change | 0.98 | -0.21 | inactive
CFAP46 | 1 | no change | no change | 0.76 | -0.18 | inactive
CFAP46 | 2 | no change | no change | 0.44 | -0.24 | inactive
LRP4 | 1 | no change | no change | 0.9 | -0.81 | inactive
MCF2 | 1 | no change | no change | 0.38 | -0.78 | inactive
CSAG1 | 1 | no change | no change | 0.72 | -0.06 | inactive
NCR1 | 1 | no change | no change | -0.37 | 0.88 | inactive
TTLL2 | 1 | no change | no change | 1.46 | -0.14 | inactive
RABL6 | 1 | no change | no change | 0.32 | 0.4 | inactive
SAPCD2 | 1 | no change | no change | 0.57 | -0.9 | inactive

An excerpt from the list above:
target gene | pool no. | viability hit class | caspase hit class | viability robust z-score | caspase robust z-score | activity call
OR1K1 | 1 | no change | no change | 0.99 | 0.2 | inactive
LINC03122 | 1 | no change | no change | -1.16 | -0.22 | inactive
SFTPC | 1 | no change | no change | 0.34 | -1.12 | inactive
MRPL58 | 1 | no change | no change | -0.4 | 1.46 | inactive
GPR158 | 1 | no change | no change | 0.5 | 0.28 | inactive
CDC42EP5 | 1 | no change | no change | -0.66 | -0.02 | inactive
SLC22A11 | 1 | no change | no change | -0.55 | 1.57 | inactive
ADGRG4 | 1 | no change | no change | 1.66 | -0.36 | inactive
HYAL3 | 1 | no change | no change | 0.82 | -0.18 | inactive
